# Results deposited as PubChem BioAssay AID652259 (Drosophila RNAi Screening Center, 2013)
# Aim: 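Knock-downs that push a Wingless-driven reporter up or down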 (primary screen)
# Cell system: Drosophila clone 8 imaginal disc epithelial cells
# Reagent: long dsRNA against Drosophila genes
# Treatment: pathway stimulated by co-transfected Wingless expression plasmid
# Read-out: 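Firefly luciferase from a tcf-site Wingless reporter, measured alongside co-transfected Renilla luciferase that tracks transfection; pathway stimulated by a Wingless plasmid; the firefly-to-Renilla ratio is not deposited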
# Reading the numbers: firefly reporter light: higher = more Wg reporter light, before normalisation; Renilla control light: higher = more transfected or surviving cells
# Call rule: 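a knock-down is a candidate when at least two out of four statistical tests show it departing from its plate mean; one test alone signals a weak candidate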
# Calls: active = candidate regulator (raises or lowers reporter); inactive = not a candidate
# The screen tested about 22,000 reagents; below is a random part of those with a known target gene and a result. In the full data, 233 (1.1%) were called active. 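Light values are raw, unnormalised plate reads; the ratio scores behind the reporter calls were not deposited.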 Unmarked entries are inactive. Names joined by + are all predicted targets of the reagent. Reagent sequences are not shown. Not given: the amount of reagent, the time to read-out, the dose of the treatment.
gene,amplicon,"reporter change call, replicate 1","firefly reporter light, replicate 1","firefly reporter light, replicate 2","Renilla control light, replicate 1","Renilla control light, replicate 2"
Atf-2 + veg (retired record),DRSC04130,,12445,,4294,
Atf-2 + veg (retired record),DRSC04413,,6236,,982,
Ocrl (Oculocerebrorenal syndrome of Lowe),DRSC18576,,4058,7079,1655,3249
CG16854,DRSC02536,,3003,8072,1232,4380
arm (armadillo),DRSC18738,Wg reporter activity lowered (active),336,521,1728,3136
CG3348,DRSC15480,,7317,,5075,
Rev1 (DNA polymerase Rev1),DRSC08264,,17305,,5609,
CG31556 (retired record),DRSC12122,,4705,,2053,
CG31556 (retired record),DRSC22177,,7.23e5,7.38e5,3.58e5,3.20e5
mio (missing oocyte),DRSC00692,,12538,,3772,
mio (missing oocyte),DRSC22056,,5.10e5,5.23e5,1.97e5,1.76e5
TMEM216 + CG11760,DRSC14375,,8706,,3634,
CG11911,DRSC00331,,6141,,3033,
CG12923,DRSC06237,,1959,5778,659,2128
CG32137,DRSC10271,,6538,,2075,
CG32137,DRSC10272,,3575,,1059,
CG2698,DRSC15447,,18499,,4196,
CG2901,DRSC18239,,13072,,7858,
CG6059,DRSC15958,,1757,5521,1068,2004
Sec3 (Secretory 3),DRSC10384,,2529,,1200,
ORMDL (Orosomucoid 1-like),DRSC11737,,14032,,6834,
ken (ken and barbie),DRSC04696,,5580,,999,
nAChRalpha5 (nicotinic Acetylcholine Receptor alpha5),DRSC01360,,22348,,14691,
nAChRalpha5 (nicotinic Acetylcholine Receptor alpha5),DRSC01946,,2613,7792,1329,4181
nAChRalpha5 (nicotinic Acetylcholine Receptor alpha5),DRSC01947,,4836,13848,1408,4962
nAChRalpha5 (nicotinic Acetylcholine Receptor alpha5),DRSC22785,,7.62e5,7.95e5,2.36e5,2.09e5
Muc11A (Mucin 11A),DRSC19498,,20905,,10310,
Argp (Arginine phosphatase),DRSC16510,,20480,,4714,
CG14185,DRSC10184,,11545,,4641,
PyK (Pyruvate kinase),DRSC16806,,34234,,6032,
brat (brain tumor),DRSC03497,,8953,,2000,

Entries above called active, once more:
gene,amplicon,"reporter change call, replicate 1","firefly reporter light, replicate 1","firefly reporter light, replicate 2","Renilla control light, replicate 1","Renilla control light, replicate 2"
arm (armadillo),DRSC18738,Wg reporter activity lowered (active),336,521,1728,3136

The list goes on:
gene,amplicon,"reporter change call, replicate 1","firefly reporter light, replicate 1","firefly reporter light, replicate 2","Renilla control light, replicate 1","Renilla control light, replicate 2"
CG14420,DRSC17917,,20829,,9913,
CG12402,DRSC14508,,14485,,3312,
CG15170,DRSC02471,,3036,6106,518,2187
CG14984,DRSC08442,,7621,,2733,
CG31775 + CG42586,DRSC22289,,7.89e5,8.22e5,3.54e5,4.16e5
Cnb (Centrobin),DRSC08569,,13719,,4720,
Cpr78E (Cuticular protein 78E),DRSC11807,,13376,,4779,
ND5 (retired record),DRSC21281,,19065,,11217,
Marf1 (Meiosis regulator and mRNA stability factor 1),DRSC03747,,2337,6019,823,2755
Marf1 (Meiosis regulator and mRNA stability factor 1),DRSC03774,,17173,,8170,
wol (wollknaeuel),DRSC03077,,9112,,4848,
Vhl (von Hippel-Lindau),DRSC07716,,3861,,1938,
CG6282,DRSC10616,,8748,,3400,
CG30486,DRSC06680,,8091,,2452,
AdipoR (Adiponectin receptor),DRSC15767,,3035,6721,1360,1840
tbc (trabuco),DRSC20540,,18234,,6432,
CG12589,DRSC12215,,23216,,4992,
"Sr-CIII (Scavenger receptor class C, type III)",DRSC22262,,5.00e5,5.58e5,2.27e5,2.20e5
Noa36,DRSC16761,,1720,7419,957,2844
Sec71 (Secretory 71),DRSC01893,,2710,8129,1018,3138
CG4645,DRSC19907,,2795,6336,802,1832
TpnC4 (Troponin C isoform 4),DRSC04856,,1776,5558,544,1964
Rm62,DRSC12365,Wg reporter activity raised (active),11744,,1408,
VhaAC45 (Vacuolar H[+] ATPase AC45 accessory subunit),DRSC07058,,6320,,1538,
CG33552,DRSC01551,,17956,,8417,
Gss1 + Gss2,DRSC20008,,25788,,11504,
Gss1 + Gss2,DRSC21539,,4.09e5,4.48e5,64643,51518
Fadd (Fas-associated death domain),DRSC14122,,31755,,6344,
Hrb98DE (Heterogeneous nuclear ribonucleoprotein at 98DE),DRSC16709,,1397,7506,907,2458
CG15109,DRSC06536,,8000,,2474,
flz (filzig),DRSC07109,,5013,6856,1248,2832
CG3009,DRSC18263,,2693,5120,960,1244
dlg1 (discs large 1),DRSC18895,,2315,,951,
dlg1 (discs large 1),DRSC18896,,4873,,2247,
dlg1 (discs large 1),DRSC19767,,20848,,7449,
dlg1 (discs large 1),DRSC20324,,1835,9028,1081,3184
Atg10 + CG12822,DRSC06796,,2466,5858,170,3116
pio (piopio),DRSC04386,,12224,,3403,
beat-IIIa (beaten path IIIa),DRSC01575,,21108,,9664,
beat-IIIa (beaten path IIIa),DRSC01577,,22245,,8262,
beat-IIIa (beaten path IIIa),DRSC02178,,3226,7813,1233,3991
Nop17l (Nop17 like),DRSC06556,,3937,,1730,
snRNA:U1:95Cc + snRNA:U1:95Cb,DRSC13641,,2785,,1416,
pths (porthos),DRSC03171,,4098,4435,610,1940
Prim2 (DNA primase subunit 2),DRSC11610,,2308,,1418,
GstZ2 (Glutathione S transferase Z2),DRSC16479,,7089,,2410,
Ndg (Nidogen),DRSC06223,,9653,,2961,
Top1 (Topoisomerase 1),DRSC20295,,16309,,7328,
Iswi (Imitation SWI),DRSC07446,,5088,,1287,
Gr64b + Gr64c,DRSC08444,,7593,,3434,
Gr64b + Gr64c,DRSC08445,,5760,,2310,
Agps (Alkylglycerone phosphate synthase),DRSC05984,,6251,,2069,
CG4935,DRSC01924,,2689,3776,1072,1924
CkIIbeta (Casein kinase II beta subunit),DRSC20230,,12458,,8120,
CG18598,DRSC15356,,12171,,1755,
Loxl2 (Lysyl oxidase-like 2),DRSC04469,,12269,,3658,
narya,DRSC19439,,2916,11154,1237,4115
CG45105,DRSC15002,,13853,,1426,
CG45105,DRSC15833,,7344,,2179,
NdufV3 (NADH:ubiquinone oxidoreductase subunit V3),DRSC19423,,19637,,9458,
mura (murashka),DRSC16483,,12150,,2368,
mura (murashka),DRSC16484,Wg reporter activity raised (active),12476,,1008,
